Results taken from US20130059818A1, “CARBOSILANE DENDRIMERS AND THE USE THEREOF AS ANTIVIRAL AGENTS” (UNIVERSIDAD DE ALCALA DE HENARES (UAH), priority 2010, published 2013).
Some results were stated once for a whole list of compounds, not compound by compound.

System: X4 HIV NL4.3
Assay: Internalization of viral particles in HEC-1A (p24 ELISA)
Type: cell-based, HIV-1
Settings: HEC-1A pretreated one hour before infection with VIHNL4-3, 10 μM

Row | Substance | Inhibition of HIV entry
1 | ck-G1-[Si(CH2)4(N3C2H)CH2N(CH2CH2COONa)2]8 [G2CKCOO16] | up to 50%
2 | ck-G1-[Si(CH2)4(N3C2H)CH2N(CH2PO(OMe)2)2]8 [G2CKP32] | up to 50%
